This is one part of the list. Many values rest on one well or one pass, so single values are uncertain.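 Cells were imaged in 1,536-well plates, and nuclei stained with an antibody against cleaved PARP were counted against all DNA-stained nuclei to give the apoptosis fraction. Screening doses were chosen to leave most cells alive, and resting and induced cleaved-PARP levels differ strongly between cell lines.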
How the values were obtained:
Experiment in all cases: cleaved PARP positive nuclei fraction relative to DMSO control; melanoma cells; higher = more apoptosis
Conditions in all cases: library dose: low library concentration; 72 h
501Mel = tested on: 501Mel
A101D = tested on: A101D
A2058 = tested on: A2058
A375 = tested on: A375
C32 = tested on: C32
CBRC008 = tested on: CBRC008 (line from a melanoma biopsy)
CBRC014 = tested on: CBRC014 (line from a melanoma biopsy)
CBRC016 = tested on: CBRC016 (line from a melanoma biopsy)
CBRC017 = tested on: CBRC017 (line from a melanoma biopsy)
CBRC034 = tested on: CBRC034 (line from a melanoma biopsy)
COLO792 = tested on: COLO792
COLO800 = tested on: COLO800
COLO829 = tested on: COLO829
G361 = tested on: G361
IPC-298 = tested on: IPC-298
IST-MEL1 = tested on: IST-MEL1
LB2518-MEL = tested on: LB2518-MEL
LOXIMVI = tested on: LOXIMVI
MEL-HO = tested on: MEL-HO
CBRC013 = tested on: CBRC013 (line from a melanoma biopsy)

Row | SMILES | cleaved PARP positive nuclei fraction (501Mel) | cleaved PARP positive nuclei fraction (A101D) | cleaved PARP positive nuclei fraction (A2058) | cleaved PARP positive nuclei fraction (A375) | cleaved PARP positive nuclei fraction (C32) | cleaved PARP positive nuclei fraction (CBRC008) | cleaved PARP positive nuclei fraction (CBRC014) | cleaved PARP positive nuclei fraction (CBRC016) | cleaved PARP positive nuclei fraction (CBRC017) | cleaved PARP positive nuclei fraction (CBRC034) | cleaved PARP positive nuclei fraction (COLO792) | cleaved PARP positive nuclei fraction (COLO800) | cleaved PARP positive nuclei fraction (COLO829) | cleaved PARP positive nuclei fraction (G361) | cleaved PARP positive nuclei fraction (IPC-298) | cleaved PARP positive nuclei fraction (IST-MEL1) | cleaved PARP positive nuclei fraction (LB2518-MEL) | cleaved PARP positive nuclei fraction (LOXIMVI) | cleaved PARP positive nuclei fraction (MEL-HO) | cleaved PARP positive nuclei fraction (CBRC013)
1 | O=C(O)[C@@H]1[O][Sb](=[O])([O][Sb]2(=[O])[O][C@H]([C@H](O)CO)[C@H](O)[C@H](C(=O)O)[O]2)[O][C@H]([C@H](O)CO)[C@@H]1O (some centres undefined) [stibogluconate] + Cc1nc(Nc2ncc(C(=O)Nc3c(C)cccc3Cl)s2)cc(N2CCN(CCO)CC2)n1 [dasatanib] (first compound 2 µM, partner dose 0.004 µM) | 206% | 63.4% | 150% | 188% | 84% | 44.6% | 112% | 79.3% | 138% | 240% | 156% | 193% | 65.6% | 122% | 44.1% | 94.3% | 122% | 345% | 153% | 
2 | C=C(c1ccc(C(=O)O)cc1)c1cc2c(cc1C)C(C)(C)CCC2(C)C [Bexarotene] + Cc1ccc(NC(=O)c2cccc(N(C)C)c2)cc1NC(=O)c1ccc(O)cc1 [ZM336372] (first compound 2 µM, partner dose 2 µM) | 137% | 80.9% | 86.2% | 72.3% | 171% | 50.5% | 151% | 131% | 165% |  | 88.3% | 72.3% | 134% | 110% | 74.4% | 110% | 147% | 225% | 173% | 81.6%
3 | Cn1c(=O)n(-c2ccc(C(C)(C)C#N)cc2)c2c3cc(-c4cnc5ccccc5c4)ccc3ncc21 + CCCS(=O)(=O)Nc1ccc(F)c(C(=O)c2c[nH]c3ncc(Cl)cc23)c1F [PLX4720] (first compound 0.004 µM, partner dose 0.08 µM) | 95.2% | 253% | 128% | 161% | 80.5% | 30% | 97.8% | 43.2% | 94.1% | 52.3% | 126% | 105% | 133% | 133% | 66% | 268% | 99.2% | 209% | 104% | 
4 | CN1CCN(c2ccc3nc(-c4c(N)c5c(F)cccc5[nH]c4=O)[nH]c3c2)CC1 [Dovitinib] + O=C(O)[C@@H]1[O][Sb](=[O])([O][Sb]2(=[O])[O][C@H]([C@H](O)CO)[C@H](O)[C@H](C(=O)O)[O]2)[O][C@H]([C@H](O)CO)[C@@H]1O [stibogluconate] (first compound 0.1 µM, partner dose 2 µM) | 125% | 271% | 103% | 81.9% | 150% | 98.4% | 96.4% | 75.8% | 92% | 58.1% | 49.1% | 90.9% | 150% | 54.3% | 52% | 60.2% | 202% | 10.7% | 120% | 
5 | C[C@@H](Oc1cc(-c2cnn(C3CCNCC3)c2)cnc1N)c1c(Cl)ccc(F)c1Cl [Crizotinib] + Cc1nc(Nc2ncc(C(=O)Nc3c(C)cccc3Cl)s2)cc(N2CCN(CCO)CC2)n1 [dasatanib] (first compound 0.2 µM, partner dose 0.004 µM) | 60.5% | 282% | 141% | 177% | 94.3% | 58.6% | 102% | 101% | 90.4% | 172% | 146% | 103% | 174% | 115% | 91.2% | 99.9% | 60.3% | 62.6% | 88.2% | 
6 | C=C(c1ccc(C(=O)O)cc1)c1cc2c(cc1C)C(C)(C)CCC2(C)C [Bexarotene] + Nc1cccc2c1CN(C1CCC(=O)NC1=O)C2=O [lenalidomide] (first compound 2 µM, partner dose 1 µM) | 139% | 101% | 67.7% | 232% | 81.5% | 171% | 107% | 169% | 148% | 68.6% | 191% | 93.1% | 49.9% | 126% | 58% | 64.8% | 98.1% | 59.2% | 25.9% | 
7 | CNC(=O)c1cc(Oc2ccc(NC(=O)Nc3ccc(Cl)c(C(F)(F)F)c3)cc2)ccn1 [sorafenib] + CCCS(=O)(=O)Nc1ccc(F)c(C(=O)c2c[nH]c3ncc(Cl)cc23)c1F [PLX4720] (first compound 0.4 µM, partner dose 0.08 µM) | 79.3% | 90.8% | 186% | 132% | 95.6% | 328% | 77.7% | 88.5% | 104% | 111% | 98.3% | 109% | 98.9% | 98.3% | 100% | 82.1% | 213% | 97.7% | 39.4% | 
8 | CN1CCN(c2ccc3nc(-c4c(N)c5c(F)cccc5[nH]c4=O)[nH]c3c2)CC1 [Dovitinib] + C[C@]1(c2nc3c(C(N)=O)cccc3[nH]2)CCCN1 [Veliparib] (first compound 0.1 µM, partner dose 1.4 µM) | 117% | 100% | 174% | 215% | 85.4% | 102% | 93% | 16.7% | 100% | 57.8% | 29.7% | 343% | 98.8% | 90.2% | 46.4% | 121% | 124% | 68.2% | 122% | 
9 | C[C@@H](Oc1cc(-c2cnn(C3CCNCC3)c2)cnc1N)c1c(Cl)ccc(F)c1Cl [Crizotinib] + Nc1ncn([C@H]2C[C@H](O)[C@@H](CO)O2)c(=O)n1 [decitabine] (first compound 0.2 µM, partner dose 0.1 µM) | 94.3% | 47.7% | 71.4% | 40% | 74.8% | 207% | 96.6% | 118% | 146% | 47.6% | 83.6% | 113% | 86.9% | 93.1% | 64.3% | 49.5% | 98.5% | 138% | 180% | 
10 | CO[C@H]1C[C@@H]2CC[C@@H](C)[C@@](O)(O2)C(=O)C(=O)N2CCCC[C@H]2C(=O)O[C@H]([C@H](C)C[C@@H]2CC[C@@H](OCCO)[C@H](OC)C2)CC(=O)[C@H](C)/C=C(\C)[C@@H](O)[C@@H](OC)C(=O)[C@H](C)C[C@H](C)/C=C/C=C/C=C/1C [everolimus] + Cc1nc(Nc2ncc(C(=O)Nc3c(C)cccc3Cl)s2)cc(N2CCN(CCO)CC2)n1 [dasatanib] (first compound 0.02 µM, partner dose 0.004 µM) | 1260% | 188% | 216% | 537% | 85.5% | 83.7% | 94.6% | 131% | 145% | 81.6% | 175% | 101% | 183% | 226% | 76.7% | 169% | 413% | 55.7% | 150% | 
11 | O=C(O)[C@@H]1[O][Sb](=[O])([O][Sb]2(=[O])[O][C@H]([C@H](O)CO)[C@H](O)[C@H](C(=O)O)[O]2)[O][C@H]([C@H](O)CO)[C@@H]1O (some centres undefined) [stibogluconate] + C[C@]1(c2nc3c(C(N)=O)cccc3[nH]2)CCCN1 [Veliparib] (first compound 2 µM, partner dose 1.4 µM) | 88.6% | 65% | 125% | 148% | 70% | 85.1% | 109% | 303% | 72.7% | 58.1% | 160% | 78% | 198% | 97.1% | 43.5% | 122% | 106% | 207% | 54.8% | 
12 | Nc1nc(F)nc2c1ncn2[C@@H]1O[C@H](CO)[C@@H](O)[C@@H]1O [fludarabine] + COCC[n+]1c2c(n(Cc3cnccn3)c1C)C(=O)c1ccccc1C2=O [YM155] (first compound 0.2 µM, partner dose 0.0004 µM) | 7420% | 103% | 92% | 4590% | 74.6% | 342% | 132% | 74.9% | 125% | 144% | 96.1% | 77.7% | 147% | 173% | 54.7% | 146% | 106% | 180% | 100% | 
13 | CNC(=O)c1cc(Oc2ccc(NC(=O)Nc3ccc(Cl)c(C(F)(F)F)c3)cc2)ccn1 [sorafenib] + C=C(c1ccc(C(=O)O)cc1)c1cc2c(cc1C)C(C)(C)CCC2(C)C [Bexarotene] (first compound 0.4 µM, partner dose 2 µM) | 108% | 338% | 61.2% | 36.3% | 152% | 236% | 110% | 154% | 199% | 64.7% | 245% | 97.3% | 16.7% | 88% | 42.3% | 166% | 88.8% | 49.9% | 106% | 
14 | Cn1c(=O)n(-c2ccc(C(C)(C)C#N)cc2)c2c3cc(-c4cnc5ccccc5c4)ccc3ncc21 + Nc1ncn([C@H]2C[C@H](O)[C@@H](CO)O2)c(=O)n1 [decitabine] (first compound 0.004 µM, partner dose 0.1 µM) | 140% | 51% | 234% | 176% | 75.9% | 152% | 107% | 145% | 116% | 44.6% | 83.7% | 137% | 48.3% | 192% | 279% | 72.5% | 125% | 156% | 53.9% | 
15 | CO[C@H]1C[C@@H]2CC[C@@H](C)[C@@](O)(O2)C(=O)C(=O)N2CCCC[C@H]2C(=O)O[C@H]([C@H](C)C[C@@H]2CC[C@@H](OCCO)[C@H](OC)C2)CC(=O)[C@H](C)/C=C(\C)[C@@H](O)[C@@H](OC)C(=O)[C@H](C)C[C@H](C)/C=C/C=C/C=C/1C [everolimus] + C[C@]1(c2nc3c(C(N)=O)cccc3[nH]2)CCCN1 [Veliparib] (first compound 0.02 µM, partner dose 1.4 µM) | 1420% | 107% | 88.6% | 862% | 91.3% | 133% | 113% | 4180% | 174% | 50.9% | 118% | 219% | 82.6% | 207% | 316% | 39.2% | 74.1% | 422% | 121% | 
16 | CC(C)C[C@H](NC(=O)[C@H](Cc1ccccc1)NC(=O)c1cnccn1)B(O)O [Bortezomib] + OCc1c[nH]c2ccccc12 [Indole-3-carbinol] (first compound 0.001 µM, partner dose 0.8 µM) | 706% | 1950% | 69.8% | 150% | 91.4% | 749% | 175% | 372% | 93.2% | 242% | 83.7% | 72.7% | 65.6% | 1210% | 51% | 292% | 234% | 134% | 42.2% | 

Reference: the supplement of paper PMC4604168 (melanoma cell lines)
